Experimental data: PubChem BioAssay AID1224829 (NIAID, 2016)

Purpose: 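Follow-up of TLR4-NF-kappaB regulators using six separate siRNAs for each gene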 (follow-up of hits)
System: mouse RAW264.7 G9 macrophage reporter cells
Reagent: single siRNA against mouse genes, 100 nM
Timing: 2 days of siRNA knock-down, then 40 min of LPS before fixing
Challenge: LPS (Salmonella minnesota R595) at 10 ng/ml
Measured: 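Imaging of GFP-p65 after 40 min of LPS; nuclear over perinuclear ring intensity ratio, scaled to plate median and non-targeting control wells, given as z-score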
Reading the numbers: p65 translocation z-score and gene median z-score, per vendor: higher = more nuclear NF-kappaB p65 after LPS
Rule for the call: 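An siRNA is called active when the mean z-score of its two replicates is above 2 or below -2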
Meaning of the calls: active = changed p65 translocation (either direction); inactive = no clear change
This is an unselected part of about 3,800 deposited reagents. 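Calls cover raised and lowered translocation; gene median uses one vendor's three siRNAs; qiagen siRNAs acted more weakly than ambion siRNAs.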 Entries without a mark were called inactive. Reagents against one gene are numbered here. Reagent sequences are not shown.

| target gene | reagent | siRNA vendor or control pool | p65 translocation z-score, replicate mean | p65 translocation z-score, replicate 1 | p65 translocation z-score, replicate 2 | gene median z-score, per vendor |
| --- | --- | --- | --- | --- | --- | --- |
| Mettl18 | 1 | ambion single siRNA | -3.54 (active) | -3.38 | -3.71 | -3.38 |
| Mettl18 | 2 | ambion single siRNA | -0.429 | -0.429 | – | -3.38 |
| Mettl18 | 3 | ambion single siRNA | -5.58 (active) | -3.09 | -8.06 | -3.38 |
| Mettl18 | 4 | qiagen single siRNA | 3.65 (active) | 3.07 | 4.23 | 3.07 |
| Mettl18 | 5 | qiagen single siRNA | -1.09 | -1.09 | – | 3.07 |
| Mettl18 | 6 | qiagen single siRNA | 2.4 (active) | 1.04 | 3.75 | 3.07 |
| Hsp90b1 | 1 | ambion single siRNA | 2.25 (active) | 2.47 | 2.03 | 0.966 |
| Hsp90b1 | 2 | ambion single siRNA | -3.03 (active) | -3.9 | -2.16 | 0.966 |
| Hsp90b1 | 3 | ambion single siRNA | 0.966 | 1.88 | 0.0497 | 0.966 |
| Hsp90b1 | 4 | qiagen single siRNA | 2.03 (active) | 1.72 | 2.33 | -0.447 |
| Hsp90b1 | 5 | qiagen single siRNA | -0.447 | -1.14 | 0.248 | -0.447 |
| Hsp90b1 | 6 | qiagen single siRNA | -3.27 (active) | -2.75 | -3.8 | -0.447 |
| Rps6kb1 | 1 | ambion single siRNA | -3.59 (active) | -3.21 | -3.96 | -3.22 |
| Rps6kb1 | 2 | ambion single siRNA | -1.56 | 2.22 | -5.34 | -3.22 |
| Rps6kb1 | 3 | ambion single siRNA | -2.48 (active) | -1.72 | -3.24 | -3.22 |
| Rps6kb1 | 4 | qiagen single siRNA | 1.68 | 2.45 | 0.906 | 0.0353 |
| Rps6kb1 | 5 | qiagen single siRNA | -0.235 | 0.0213 | -0.491 | 0.0353 |
| Rps6kb1 | 6 | qiagen single siRNA | -1.4 | -2.84 | 0.0493 | 0.0353 |
| Cdc5l | 1 | ambion single siRNA | -4.22 (active) | -3.97 | -4.46 | -2.32 |
| Cdc5l | 2 | ambion single siRNA | 2.52 (active) | 2.52 | – | -2.32 |
| Cdc5l | 3 | ambion single siRNA | -0.986 | -2.32 | 0.344 | -2.32 |
| Cdc5l | 4 | qiagen single siRNA | 2.24 (active) | 1.82 | 2.65 | 0.524 |
| Cdc5l | 5 | qiagen single siRNA | 0.524 | -0.253 | 1.3 | 0.524 |
| Cdc5l | 6 | qiagen single siRNA | -1.12 | -1.49 | -0.76 | 0.524 |
| Prmt5 | 1 | ambion single siRNA | -0.0958 | 2.11 | -2.3 | -2.54 |
| Prmt5 | 2 | ambion single siRNA | -2.25 (active) | -2.78 | -1.72 | -2.54 |
| Prmt5 | 3 | ambion single siRNA | -4.3 (active) | -4.26 | -4.33 | -2.54 |
| Prmt5 | 4 | qiagen single siRNA | 0.155 | -0.605 | 0.916 | 0.479 |
| Prmt5 | 5 | qiagen single siRNA | 0.423 | 2.7 | -1.85 | 0.479 |
| Prmt5 | 6 | qiagen single siRNA | 0.769 | 0.0414 | 1.5 | 0.479 |
| Poglut3 | 1 | ambion single siRNA | -1.82 | -3.4 | -0.25 | -0.869 |
| Poglut3 | 2 | ambion single siRNA | -0.299 | -1.49 | 0.891 | -0.869 |
| Poglut3 | 3 | ambion single siRNA | – | – | – | -0.869 |
| Poglut3 | 4 | qiagen single siRNA | 1.06 | -0.0231 | 2.14 | -0.269 |
| Poglut3 | 5 | qiagen single siRNA | -1.46 | -1.66 | -1.26 | -0.269 |
| Poglut3 | 6 | qiagen single siRNA | 0.246 | -0.515 | 1.01 | -0.269 |
| Cabp7 | 1 | ambion single siRNA | 4.08 (active) | 3.29 | 4.87 | 0.38 |
| Cabp7 | 2 | ambion single siRNA | -5.05 (active) | -5.05 | – | 0.38 |
| Cabp7 | 3 | ambion single siRNA | -1.02 | 0.38 | -2.42 | 0.38 |
| Cabp7 | 4 | qiagen single siRNA | -1.52 | -1.59 | -1.44 | -2.13 |
| Cabp7 | 5 | qiagen single siRNA | -3.58 (active) | -2.04 | -5.13 | -2.13 |
| Cabp7 | 6 | qiagen single siRNA | -3.41 (active) | -2.23 | -4.59 | -2.13 |
| Hhat | 1 | ambion single siRNA | -0.952 | -0.753 | -1.15 | -0.952 |
| Hhat | 2 | ambion single siRNA | -3.06 (active) | -4.08 | -2.03 | -0.952 |
| Hhat | 3 | ambion single siRNA | -0.667 | -0.678 | -0.656 | -0.952 |
| Hhat | 4 | qiagen single siRNA | 1.07 | 1.39 | 0.76 | -0.354 |
| Hhat | 5 | qiagen single siRNA | -2.51 (active) | -2.51 | – | -0.354 |
| Hhat | 6 | qiagen single siRNA | -1.47 | -1.47 | – | -0.354 |
| Orc5 | 1 | ambion single siRNA | -2.9 (active) | -2.9 | – | -2.07 |
| Orc5 | 2 | ambion single siRNA | 1.42 | 1.42 | – | -2.07 |
| Orc5 | 3 | ambion single siRNA | -2.07 (active) | -2.61 | -1.53 | -2.07 |
| Orc5 | 4 | qiagen single siRNA | 2.38 (active) | 1.75 | 3.01 | 1.69 |
| Orc5 | 5 | qiagen single siRNA | 1.61 | -0.841 | 4.05 | 1.69 |
| Orc5 | 6 | qiagen single siRNA | 1.21 | 0.78 | 1.64 | 1.69 |

7 entries from above, set out differently.
target gene | reagent | siRNA vendor or control pool | p65 translocation z-score, replicate mean | p65 translocation z-score, replicate 1 | p65 translocation z-score, replicate 2 | gene median z-score, per vendor
Cabp7 | 4 | qiagen single siRNA | -1.52 | -1.59 | -1.44 | -2.13
Cabp7 | 5 | qiagen single siRNA | -3.58 (active) | -2.04 | -5.13 | -2.13
Cabp7 | 6 | qiagen single siRNA | -3.41 (active) | -2.23 | -4.59 | -2.13
Hhat | 1 | ambion single siRNA | -0.952 | -0.753 | -1.15 | -0.952
Hhat | 2 | ambion single siRNA | -3.06 (active) | -4.08 | -2.03 | -0.952
Hhat | 3 | ambion single siRNA | -0.667 | -0.678 | -0.656 | -0.952
Hhat | 4 | qiagen single siRNA | 1.07 | 1.39 | 0.76 | -0.354
